Reference: PubChem BioAssay AID1259405 (NCATS, 2018)

Assay: 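Knock-downs that lift recombinant protein yield in hamster ovary cells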 (primary screen)
Cells: Chinese hamster CHO-K1 ovary cells with stable secreted eGFP expression
Reagents: single siRNA against mouse genes, 0.8 pmol siRNA per well (2 µl of 400 nM stock)
Time to read-out: 3 days
Read-out: 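Percent of the per-plate non-targeting control median for intracellular GFP per well by laser scanning cytometry and for cell viability by ATP luminescence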
Direction: GFP, % of control: higher = more GFP per well, higher productivity; viability (ATP), % of control: higher = more viable cells (more ATP)
Hit rule: 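Called active when intracellular GFP, relative to negative control, is at or above 120%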
In all, the deposit lists about 50,000 reagents; below is an unselected part. About 4,000 of them (8%) count as active. 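Mouse siRNA library applied to hamster cells; one well for each siRNA.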 The numbers tell different reagents against one gene apart. No sequences are given here.

After knock-down of Cep135 (GeneID 381644) #1, the record shows GFP, % of control 69.9; viability (ATP), % of control 57.3; inactive.
Against Cep135 (GeneID 381644) #2, the entry reads GFP, % of control 65; viability (ATP), % of control 75.2; inactive.
For Cep135 (GeneID 381644) #3, the entry reads GFP, % of control 116; viability (ATP), % of control 102; inactive.
With knock-down of Or10g9 (GeneID 259112) #1, the record shows GFP, % of control 112; viability (ATP), % of control 84.4; inactive.
Silencing of Or10g9 (GeneID 259112) #2 gave: GFP, % of control 69.5; viability (ATP), % of control 67.2; inactive.
Or10g9 (GeneID 259112) #3 scored GFP, % of control 42.6; viability (ATP), % of control 29.1; inactive.
Depletion of Ermn (GeneID 77767) #1 resulted in: GFP, % of control 48.7; viability (ATP), % of control 59.6; inactive.
After knock-down of Ermn (GeneID 77767) #2, the screen gave GFP, % of control 68.3; viability (ATP), % of control 79.7; inactive.
Against Ermn (GeneID 77767) #3, the values are GFP, % of control 75.7; viability (ATP), % of control 52.9; inactive.
Depletion of Chchd6 (GeneID 66098) #1 came out at: GFP, % of control 96.7; viability (ATP), % of control 81.8; inactive.
After knock-down of Chchd6 (GeneID 66098) #2, the record shows GFP, % of control 76.1; viability (ATP), % of control 85.5; inactive.
With knock-down of Chchd6 (GeneID 66098) #3, the screen gave GFP, % of control 128; viability (ATP), % of control 86.8; active.
After knock-down of Calml4 (GeneID 75600) #1 the results were GFP, % of control 82.1; viability (ATP), % of control 79.3; inactive.
Calml4 (GeneID 75600) #2 gave GFP, % of control 60.2; viability (ATP), % of control 58.5; inactive.
Calml4 (GeneID 75600) #3 gave GFP, % of control 128; viability (ATP), % of control 137; active.
Depletion of Cyp2d13 (GeneID 68444) #1 resulted in: GFP, % of control 147; viability (ATP), % of control 76.9; active.
For Cyp2d13 (GeneID 68444) #2, the entry reads GFP, % of control 22.2; viability (ATP), % of control 24.6; inactive.
Against Cyp2d13 (GeneID 68444) #3, the entry reads GFP, % of control 135; viability (ATP), % of control 84.6; active.

3 of these entries, reformatted.
{"gene knocked down":"Ermn (GeneID 77767)","reagent":1,"GFP, % of control":48.7,"viability (ATP), % of control":59.6,"call":"inactive"}
{"gene knocked down":"Ermn (GeneID 77767)","reagent":2,"GFP, % of control":68.3,"viability (ATP), % of control":79.7,"call":"inactive"}
{"gene knocked down":"Ermn (GeneID 77767)","reagent":3,"GFP, % of control":75.7,"viability (ATP), % of control":52.9,"call":"inactive"}

The listing continues.
Rhoc (GeneID 11853) #1 scored GFP, % of control 57.5; viability (ATP), % of control 71.9; inactive.
For Rhoc (GeneID 11853) #2, the entry reads GFP, % of control 83.6; viability (ATP), % of control 98.5; inactive.
For Rhoc (GeneID 11853) #3 the deposit lists GFP, % of control 40.3; viability (ATP), % of control 53.1; inactive.
For Heg1 (GeneID 77446) #1, the values are GFP, % of control 44.1; viability (ATP), % of control 48; inactive.
After knock-down of Heg1 (GeneID 77446) #2, the record shows GFP, % of control 88.8; viability (ATP), % of control 48.4; inactive.
Silencing of Heg1 (GeneID 77446) #3 resulted in: GFP, % of control 53.9; viability (ATP), % of control 48.8; inactive.
Against Heg1 (GeneID 77446) #4, the entry reads GFP, % of control 71.2; viability (ATP), % of control 93.1; inactive.
Heg1 (GeneID 77446) #5 gave GFP, % of control 54.6; viability (ATP), % of control 52; inactive.
Heg1 (GeneID 77446) #6 showed GFP, % of control 75; viability (ATP), % of control 80.4; inactive.
With knock-down of 9530091C08Rik (GeneID 320440) #1, the screen gave GFP, % of control 68.9; viability (ATP), % of control 72.4; inactive.
Depletion of 9530091C08Rik (GeneID 320440) #2 gave: GFP, % of control 69; viability (ATP), % of control 75.1; inactive.
Against 9530091C08Rik (GeneID 320440) #3 the deposit lists GFP, % of control 81.3; viability (ATP), % of control 87.6; inactive.
Knock-down of 4930579K19Rik (GeneID 75881) #1 came out at: GFP, % of control 109; viability (ATP), % of control 61.1; inactive.
For 4930579K19Rik (GeneID 75881) #2, the values are GFP, % of control 49.8; viability (ATP), % of control 37.9; inactive.
Depletion of 4930579K19Rik (GeneID 75881) #3 gave: GFP, % of control 77.5; viability (ATP), % of control 106; inactive.
Depletion of S1pr3 (GeneID 13610) #1 gave: GFP, % of control 100; viability (ATP), % of control 104; inactive.
Against S1pr3 (GeneID 13610) #2, the values are GFP, % of control 99.8; viability (ATP), % of control 78.2; inactive.
After knock-down of S1pr3 (GeneID 13610) #3, the record shows GFP, % of control 57; viability (ATP), % of control 83.1; inactive.
With knock-down of Tab3 (GeneID 66724) #1, the record shows GFP, % of control 94.4; viability (ATP), % of control 107; inactive.
Tab3 (GeneID 66724) #2 scored GFP, % of control 84.4; viability (ATP), % of control 84.9; inactive.
Against Tlcd2 (GeneID 380712) #1, the values are GFP, % of control 66.7; viability (ATP), % of control 74.5; inactive.
Knock-down of Tlcd2 (GeneID 380712) #2 came out at: GFP, % of control 95.4; viability (ATP), % of control 65.3; inactive.
Tlcd2 (GeneID 380712) #3 showed GFP, % of control 98.8; viability (ATP), % of control 117; inactive.
With knock-down of Thoc6 (GeneID 386612) #1, the record shows GFP, % of control 64.8; viability (ATP), % of control 64.1; inactive.
Silencing of Thoc6 (GeneID 386612) #2 resulted in: GFP, % of control 23.1; viability (ATP), % of control 79.6; inactive.
Depletion of Thoc6 (GeneID 386612) #3 gave: GFP, % of control 121; viability (ATP), % of control 52.9; active.
Eif3j1 (GeneID 78655) #1 showed GFP, % of control 64.7; viability (ATP), % of control 80.3; inactive.
Knock-down of Eif3j1 (GeneID 78655) #2 resulted in: GFP, % of control 57; viability (ATP), % of control 66.8; inactive.
For Eif3j1 (GeneID 78655) #3 the deposit lists GFP, % of control 103; viability (ATP), % of control 84.7; inactive.
After knock-down of Cflar (GeneID 12633) #1, the record shows GFP, % of control 127; viability (ATP), % of control 105; active.
Depletion of Cflar (GeneID 12633) #2 came out at: GFP, % of control 144; viability (ATP), % of control 89.5; active.
Depletion of Cflar (GeneID 12633) #3 resulted in: GFP, % of control 41.4; viability (ATP), % of control 49.9; inactive.
Against Or9q1 (GeneID 258097) #1, the entry reads GFP, % of control 102; viability (ATP), % of control 64.4; inactive.
Against Or9q1 (GeneID 258097) #2 the deposit lists GFP, % of control 89.1; viability (ATP), % of control 97.9; inactive.
After knock-down of Or9q1 (GeneID 258097) #3 the results were GFP, % of control 56.5; viability (ATP), % of control 56.8; inactive.
